40 compounds from PubChem BioAssay AID445 (National Center for Advancing Translational Sciences (NCATS), 2006) can be followed below.

Structures are written as SMILES. The list shows a part of the results. Further columns of the screen follow, without active or inactive calls. The list favours compounds with an active or inconclusive main result. The note in brackets gives the kind of curve behind each potency; many fits are weak.

A short description of this assay: IkB Signaling. To be noted: ABC-DLBCL IkBa-CBG/CBR dual luciferase ratio (green luciferase fused to IkBa over red control in OCI-Ly3 lymphoma cells), 4 h. The procedure, abridged:
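Luminescence ratio of IκBα-fused green versus native red beetle luciferase in OCI-Ly3 cells, 4 h post-doxycycline with compound; red signal alone, scaled from basal (0%) to zero light (-100%), flagged nonspecific or cytotoxic effects.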

[1] abbreviates: measured here: control luc red channel unless noted.
[2] abbreviates: measured here: IkB-luc green channel.
Where [3] appears, read: measured here: control luc red channel.

Turning to `CN1C(C(=O)c2ccccc2)=C(OC(=O)c2ccc(Br)cc2)c2ccccc2S1(=O)=O`, the AC50 under setting [1] is 25.1 µM [falling, partial curve].

As to `Cc1oc2c(c(C)cc3oc(=O)c(CC(=O)NCCc4ccccc4)c(C)c32)c1C`, under setting [1], the AC50 was 3.16 µM [rising, partial curve, poor fit]. Same read-out and setting: the value for `COc1ccccc1NC(=O)c1c(NCc2ccc(OC)c(OC)c2OC)sc2c1CCCC2` was 25.1 µM [falling, single point]; that for `CCOC(=O)c1ccc(Nc2nc3ccccc3nc2NS(=O)(=O)c2ccc(Cl)cc2)cc1` was 1 µM [falling, full curve]. In the case of `Cc1ccc(-c2c(CN3CCN(c4cccc(C(F)(F)F)c4)CC3)csc2C)cc1`, under setting [1], the AC50 is 1.26 µM [falling, partial curve]. The same measure, in the same setting: as for `Cc1nc2c(C(=O)NCc3ccccc3)c[nH]n2c(=O)c1Cc1ccccc1Cl`, the figure is 12.6 µM [falling, partial curve]; as for `Cc1sc2ncn(CC(=O)N(C)c3ccc(Br)cc3)c(=O)c2c1S(=O)(=O)N1CCC(C)CC1`, 10 µM [falling, partial curve]; as for `Cc1cccc(NC(=O)c2c(C)oc3ncn(CC(C)C)c(=O)c23)n1`, 0.398 µM [rising, full curve]. Still for that read-out and setting: as for `COc1cccc(NC(=O)Nc2cccc(-c3cn4cccnc4n3)c2)c1`, the figure is 20 µM [falling, partial curve]; as for `COc1ccc(NC(=O)c2noc3c2CCCC3)cc1Cl`, 39.8 µM [falling, single point]. For `CCOc1ccc(-c2nnc(Nc3ccc(S(N)(=O)=O)cc3)c3ccccc23)cc1`, the AC50 is, setting by setting: under setting [2], 31.6 µM [rising, single point]; under setting [3], 0.501 µM [rising, partial curve, poor fit]. Regarding `CC(C)(C)c1ccc(OCC(=O)N2CCC(c3nc4ccccc4s3)CC2)cc1`, the AC50 under setting [1] is 5.01 µM [falling, full curve]. Still for that read-out and setting: as for `Cc1nc2cccnc2n1-c1cccc(C(=O)N2CCN(c3ccc(Cl)cc3)CC2)c1`, the figure is 15.8 µM [falling, partial curve]. Turning to `COc1cc(CN2CCN(c3cccc(C)c3C)CC2)cc(Br)c1O`, under setting [1], the AC50 is 12.6 µM [falling, partial curve]. For the compound `CCN(CCCNC(=O)Cn1ncc2c([nH]c3ccc(C)cc32)c1=O)c1cccc(C)c1`, the AC50 under setting [1] is 1 µM [falling, full curve, poor fit].

`CCC(CC)c1nnc(NS(=O)(=O)Cc2ccccc2)s1`: under setting [1], the AC50 was 2 µM [falling, full curve].

Turning to `CC1CCCCN1C(=O)CSCC(=O)Nc1nc(-c2cccs2)cs1` (stereo not drawn), under setting [1], the half-maximal activity concentration (AC50) was 10 µM [falling, partial curve].

Turning to `Cc1cccc(CCNC(=O)c2sc3nc4n(c(=O)c3c2C)CCCC4)c1`, under setting [1], the AC50 is 25.1 µM [falling, partial curve]. The same measure, in the same setting: as for `Cc1ccc(S(=O)(=O)c2nc(-c3ccccc3)oc2NCc2cccnc2)cc1`, the figure is 25.1 µM [falling, partial curve]; as for `O=C1CSC2(C(=O)N(Cc3ccccc3F)c3ccccc32)N1c1ccc(F)cc1` (stereo not drawn), 15.8 µM [falling, partial curve].

As for `CCCC(=O)c1cc(F)c(N2CCOCC2)cc1C`, the AC50 is 6.31 µM [rising, single point] under setting [2] and 6.31 µM [rising, single point] under setting [3]. For `O=C(NCCc1ccccc1)c1ccc(CS(=O)(=O)c2ccc(Br)cc2)o1`, the AC50 under setting [1] is 25.1 µM [falling, single point]. Consider `Cc1cc2nn(-c3ccccc3)nc2cc1NC(=O)c1cccc2c(Cl)cccc12`, for which the AC50 under setting [1] was 0.251 µM [rising, full curve]. Still for that read-out and setting: the value for `COc1ccc(CCC(=O)N2CCc3c([nH]c4ccccc34)C2c2ccc(F)cc2)cc1` (stereo not drawn) was 7.94 µM [falling, full curve]; that for `CCSc1nnc2n(-c3cccc(C)c3)c(=O)c3c4c(sc3n12)CCCC4` was 25.1 µM [falling, single point]. The same measure, in the same setting: as for `COc1ccc(-c2cc(C(=O)Nc3cccnc3Cl)no2)cc1OC`, the figure is 2.51 µM [rising, full curve].

Consider `O=C(NCCc1ccc2c(c1)OCCO2)c1cc2ccccc2o1`, for which the concentration at half-maximal activity (AC50) under setting [1] was 12.6 µM [falling, partial curve]. For the compound `Cc1ccccc1C(=O)OCc1cc(=O)n2nc(-c3cccs3)sc2n1`, the concentration at half-maximal activity (AC50) under setting [1] is 1.58 µM [rising, partial curve]. Still for that read-out and setting: as for `Clc1ccc(-n2nnnc2Sc2ncnc3sccc23)cc1`, the figure is 10 µM [falling, partial curve]; as for `CN(C)CCN(Cc1ccco1)C(=O)c1oc2ccccc2c1NC(=O)c1ccccc1`, 31.6 µM [falling, single point]. As for `Cc1ccc(OCC(=O)N(Cc2ccco2)Cc2ccc(C)o2)cc1`, the AC50 under setting [1] was 39.8 µM [falling, single point].

`Cc1ccc2cc(C#N)c(NCc3ccco3)nc2c1`: the half-maximal activity concentration (AC50) under setting [1] is 15.8 µM [rising, partial curve] [measured here: IkB-luc green channel]. For `CCc1ccccc1N(CC)C(=O)CCc1nc(-c2ccc(C)cc2)no1`, the AC50 under setting [1] is 20 µM [falling, partial curve]. The same measure, in the same setting: the value for `Cc1ccc(C(=O)C2CCN(CC(=O)NC3CCCCC3)CC2)cc1` was 25.1 µM [falling, partial curve]; that for `COc1ccc(NC(=O)c2cc(-c3ccc(OC)c(OC)c3)on2)cc1OC` was 6.31 µM [falling, partial curve]. Consider `NCCCCCCCCCCNS(=O)(=O)c1cccc2c(Cl)cccc12`, for which the AC50 under setting [1] was 31.6 µM [falling, partial curve]. `Cc1cc(S(=O)(=O)Nc2ccc(-c3ccc(N4CCCCCC4)nn3)cc2)c(C)cc1Cl`: the AC50 under setting [1] was 6.31 µM [falling, full curve]. `CCc1sc(Nc2cccc(C)c2C)nc1-c1cc2cccc(OC)c2oc1=O`: the concentration at half-maximal activity (AC50) under setting [1] was 0.251 µM [falling, full curve]. Turning to `Cc1ccc2c(=O)c(C(=O)c3cccc(Cl)c3)cn(CC(=O)Nc3ccc4c(c3)OCCO4)c2n1`, the AC50 under setting [1] was 12.6 µM [falling, partial curve]. As for `COc1ccc(-n2nnnc2S(=O)(=O)CC(=O)N2CCCCC2)cc1`, the AC50 reads like this: under setting [2], 3.16 µM [falling, full curve]; under setting [3], 1 µM [falling, full curve].

By AC50 is commonly meant the midpoint of the concentration-response curve, whichever way the signal moves.
